Data as given in US20130064768A1, “LIPOPHILIC CATIONIC PROBE FOR PET-IMAGING” (Medical Research Council, priority 2010, published 2013).
Some results were stated once for a whole list of compounds, not compound by compound.

Assay: Tissue and blood distribution of [3H]TPP compounds after iv tail vein injection
Settings: mice, 100 nmol iv bolus; estimate only
Experimental: A sample of the [^3H]compound solution injected was retained to calculate the specific activity, which was subsequently used to determine the tissue content of the compound. At the indicated times after injection, the mice were killed by cervical dislocation and a blood sample of ˜100-200 μL was obtained by cardiac puncture. The organs were then removed, cleared of blood, transferred to pre-chilled Eppendorf tubes on ice, weighed and stored at −80° C. until processing. The tissues taken were: heart, kidneys, liver, brain, skeletal muscle (gastrocnemius) and white adipose tissue (subcutaneous). […] The mice were monitored after injection to ensure no pathology or distress and all procedures were carried out under the approval of the University of Otago animal ethics committee.
Extraction of [^3H] Compounds from Tissues Tissues were thawed at room temperature and transferred to 50 mL Falcon tubes. […]
The homogenate was transferred in 1 mL batches to 1.5 mL Eppendorf tubes and centrifuged (10,000×g for 8 min at 4° C.). […] The half lives of compounds in organs were determined from the first order rate constants for loss of [^3H] compound from the organs, measured as the slope of ln[TPP compound] against time for the first 5 h after iv injection.

CS(=O)(=O)[O-].FCCCCCCCCCCC[P+](c1ccccc1)(c1ccccc1)c1ccccc1 [FluoroUndecylTPP, 11-fluoroundecyltriphenylphosphonium mesylate]
half life for clearance from fat and muscle: 7 to 12 h
